Results are given in words; binding and its absence hold for the method and conditions named. Binding seen in cells or lysates may run through a third protein. Some results given as binding are weak or reduced against the parent protein; the word gives no strength.
Experiments:
[1] = molecular target: NELF-E (human (endogenous in Cal-62)) (UniProt P18615); assay: co-IP; endogenous proteins in Cal-62 lysates (RIPA buffer); 4 ug primary antibody overnight at 4 C, protein G Dynabeads 2 h, immunoblot; anti-IgG as control; some panels from cells treated with DMSO or niraparib, or with scrambled or PARP1 siRNA for 48 h
[2] = molecular target: RNF146-flag (UniProt Q9NTX7); assay: co-IP; Cal-62 cells expressing RNF146-flag, lysed with RIPA buffer; immunoprecipitation with flag antibody, immunoblot

Protein sequences, listed by entry. Tags and fused reporters are not part of them.
UniProt P18615: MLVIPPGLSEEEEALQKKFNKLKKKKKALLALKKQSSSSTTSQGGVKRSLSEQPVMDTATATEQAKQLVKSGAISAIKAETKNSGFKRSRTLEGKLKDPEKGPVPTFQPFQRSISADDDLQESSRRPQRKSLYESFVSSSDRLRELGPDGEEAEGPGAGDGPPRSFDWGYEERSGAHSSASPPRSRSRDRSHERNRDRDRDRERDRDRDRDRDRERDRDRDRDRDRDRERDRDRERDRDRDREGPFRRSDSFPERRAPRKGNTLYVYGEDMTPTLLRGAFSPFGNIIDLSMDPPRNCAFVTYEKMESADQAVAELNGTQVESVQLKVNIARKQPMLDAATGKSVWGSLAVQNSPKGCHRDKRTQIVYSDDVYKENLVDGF
UniProt Q9NTX7: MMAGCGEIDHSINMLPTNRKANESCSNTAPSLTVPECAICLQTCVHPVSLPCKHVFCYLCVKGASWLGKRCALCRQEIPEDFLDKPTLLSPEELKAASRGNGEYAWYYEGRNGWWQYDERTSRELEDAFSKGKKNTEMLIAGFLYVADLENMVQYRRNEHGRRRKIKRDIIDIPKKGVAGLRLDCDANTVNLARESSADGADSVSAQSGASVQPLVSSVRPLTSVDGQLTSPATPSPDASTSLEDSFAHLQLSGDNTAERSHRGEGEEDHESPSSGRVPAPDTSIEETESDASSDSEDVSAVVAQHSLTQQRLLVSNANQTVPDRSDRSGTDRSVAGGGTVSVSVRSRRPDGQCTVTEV
UniProt P09874: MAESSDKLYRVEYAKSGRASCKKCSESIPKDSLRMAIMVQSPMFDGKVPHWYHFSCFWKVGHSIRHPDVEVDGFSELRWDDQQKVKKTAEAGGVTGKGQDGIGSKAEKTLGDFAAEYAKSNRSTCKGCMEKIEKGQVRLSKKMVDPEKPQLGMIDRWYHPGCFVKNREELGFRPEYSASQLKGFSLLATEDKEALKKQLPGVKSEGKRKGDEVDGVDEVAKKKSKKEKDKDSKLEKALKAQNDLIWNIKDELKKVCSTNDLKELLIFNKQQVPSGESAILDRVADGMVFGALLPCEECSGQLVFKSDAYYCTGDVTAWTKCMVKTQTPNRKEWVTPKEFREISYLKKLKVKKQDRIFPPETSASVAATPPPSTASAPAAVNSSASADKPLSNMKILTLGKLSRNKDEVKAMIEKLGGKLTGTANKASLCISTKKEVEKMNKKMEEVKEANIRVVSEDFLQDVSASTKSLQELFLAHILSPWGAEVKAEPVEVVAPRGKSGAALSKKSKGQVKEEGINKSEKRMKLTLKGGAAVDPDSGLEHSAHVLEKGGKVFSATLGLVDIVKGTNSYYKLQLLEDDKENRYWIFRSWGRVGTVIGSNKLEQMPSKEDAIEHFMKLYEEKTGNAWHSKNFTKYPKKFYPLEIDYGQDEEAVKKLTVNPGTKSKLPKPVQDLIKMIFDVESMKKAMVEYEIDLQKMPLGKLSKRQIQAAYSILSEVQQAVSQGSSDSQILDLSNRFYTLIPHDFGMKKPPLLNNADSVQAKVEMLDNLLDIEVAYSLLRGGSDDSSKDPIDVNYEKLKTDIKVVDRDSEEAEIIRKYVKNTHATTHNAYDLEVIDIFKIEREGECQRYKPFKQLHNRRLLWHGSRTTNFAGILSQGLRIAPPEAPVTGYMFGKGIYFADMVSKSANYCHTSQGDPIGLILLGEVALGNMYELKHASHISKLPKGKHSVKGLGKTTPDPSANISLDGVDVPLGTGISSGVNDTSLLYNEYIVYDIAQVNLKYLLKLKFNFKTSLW
UniProt Q04206: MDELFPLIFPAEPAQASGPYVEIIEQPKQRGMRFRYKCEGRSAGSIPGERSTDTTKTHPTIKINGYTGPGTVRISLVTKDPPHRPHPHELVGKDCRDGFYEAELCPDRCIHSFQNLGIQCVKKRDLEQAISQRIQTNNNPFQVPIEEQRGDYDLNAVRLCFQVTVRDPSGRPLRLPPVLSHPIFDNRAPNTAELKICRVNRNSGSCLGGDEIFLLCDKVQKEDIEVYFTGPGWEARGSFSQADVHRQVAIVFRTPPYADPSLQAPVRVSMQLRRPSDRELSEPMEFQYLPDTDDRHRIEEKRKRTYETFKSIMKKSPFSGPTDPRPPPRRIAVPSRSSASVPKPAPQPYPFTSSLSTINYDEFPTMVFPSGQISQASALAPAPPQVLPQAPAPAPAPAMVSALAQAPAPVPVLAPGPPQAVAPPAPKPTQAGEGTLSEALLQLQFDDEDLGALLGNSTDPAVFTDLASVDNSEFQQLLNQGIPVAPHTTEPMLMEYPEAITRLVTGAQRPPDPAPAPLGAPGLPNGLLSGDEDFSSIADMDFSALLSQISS

Row | binding [1] | binding [2] | Substance
1 | binds |  | PARP1 (from UniProt P09874 1-1014)
2 |  | binds | p65 (from UniProt Q04206 1-551)

From PMC10411462
